Results from patent US12383511B2, “Osteogenic agents and uses thereof” (GoldPorp Pharma Limited, priority 2022, dated 2025).
Some results were stated once for a whole list of compounds, not compound by compound.

System: MC3T3-E1 osteoblasts
Experiment: Alkaline phosphatase (ALP) activity assay in MC3T3-E1 osteoblasts
Format: cell-based
Conditions: 5 μM; compared to the untreated cells
Experimental: MC3T3-E1 (passage 4-10) was maintained in Minimal Essential Media (MEM) supplemented with 10% FBS, 1 mM Sodium Pyruvate and 1% 100 ug/ml penicillin-streptomycin (100 U/ml). All reagents are from GIBCO Life Technologies.
MC3T3-E1 cells were seeded at 1×10^5 cells per well in 24-well plate. […] After treatment, cells were washed twice with PBS and lysed with buffer contains 50 mM Tris pH7.4 and 0.1% Triton X-100. After 3 freeze-thaw cycles, 40 ul of cell lysate was mixed with 50 ul of 2× Assay buffer (2-Amino-2methyl-1-propanol, pH 10.4 with 4 mM MgCl2) and 10 ul of 0.1M 4-Nitrophenyl phosphate. Incubated in 37° C. and recorded at OD410.

SMILES | increases in the ALP activities
C=Cc1cc(O)c(C)c2c1-c1ccc(O)c(C)c1CC2 [F1] | 2-3 fold
C=Cc1cc(O)cc2c1-c1ccc(O)c(C)c1CC2 [F4, effusol] | 2-3 fold
